# Measurements as given in the supplement of paper PMC12595434, “Development of retinoid nuclear receptor pathway antagonists through targeting aldehyde dehydrogenase 1A3” (iScience, 2025).
# Sequences of proteins named here, by UniProt entry; tags and fusion partners are left off. A change or cut given only in a name is not applied to a line headed by its entry.
# UniProt Q8IWU5: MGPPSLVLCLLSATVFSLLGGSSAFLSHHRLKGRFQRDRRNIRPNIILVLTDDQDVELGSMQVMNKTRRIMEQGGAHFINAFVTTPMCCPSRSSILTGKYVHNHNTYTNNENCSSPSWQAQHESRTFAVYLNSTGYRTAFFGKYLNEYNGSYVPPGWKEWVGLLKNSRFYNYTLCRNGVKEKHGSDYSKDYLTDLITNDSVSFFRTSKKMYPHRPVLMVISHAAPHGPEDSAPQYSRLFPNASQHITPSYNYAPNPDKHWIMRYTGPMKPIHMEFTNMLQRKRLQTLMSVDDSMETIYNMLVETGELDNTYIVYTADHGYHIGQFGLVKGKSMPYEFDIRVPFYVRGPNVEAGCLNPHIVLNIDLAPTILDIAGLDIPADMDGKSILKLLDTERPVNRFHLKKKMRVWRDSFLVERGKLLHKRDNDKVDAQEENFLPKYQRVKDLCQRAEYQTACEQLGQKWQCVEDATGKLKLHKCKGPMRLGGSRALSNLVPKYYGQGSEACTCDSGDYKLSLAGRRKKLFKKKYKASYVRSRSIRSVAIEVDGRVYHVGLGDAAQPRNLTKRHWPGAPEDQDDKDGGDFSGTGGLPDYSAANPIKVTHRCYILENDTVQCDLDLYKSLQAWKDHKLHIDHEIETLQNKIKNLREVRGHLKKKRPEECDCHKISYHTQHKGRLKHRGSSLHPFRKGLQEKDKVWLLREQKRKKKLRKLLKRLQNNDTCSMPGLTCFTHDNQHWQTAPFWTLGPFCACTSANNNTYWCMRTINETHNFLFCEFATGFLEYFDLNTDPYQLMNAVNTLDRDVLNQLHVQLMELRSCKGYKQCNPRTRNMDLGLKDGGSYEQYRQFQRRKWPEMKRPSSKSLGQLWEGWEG
# UniProt Q8N0X7: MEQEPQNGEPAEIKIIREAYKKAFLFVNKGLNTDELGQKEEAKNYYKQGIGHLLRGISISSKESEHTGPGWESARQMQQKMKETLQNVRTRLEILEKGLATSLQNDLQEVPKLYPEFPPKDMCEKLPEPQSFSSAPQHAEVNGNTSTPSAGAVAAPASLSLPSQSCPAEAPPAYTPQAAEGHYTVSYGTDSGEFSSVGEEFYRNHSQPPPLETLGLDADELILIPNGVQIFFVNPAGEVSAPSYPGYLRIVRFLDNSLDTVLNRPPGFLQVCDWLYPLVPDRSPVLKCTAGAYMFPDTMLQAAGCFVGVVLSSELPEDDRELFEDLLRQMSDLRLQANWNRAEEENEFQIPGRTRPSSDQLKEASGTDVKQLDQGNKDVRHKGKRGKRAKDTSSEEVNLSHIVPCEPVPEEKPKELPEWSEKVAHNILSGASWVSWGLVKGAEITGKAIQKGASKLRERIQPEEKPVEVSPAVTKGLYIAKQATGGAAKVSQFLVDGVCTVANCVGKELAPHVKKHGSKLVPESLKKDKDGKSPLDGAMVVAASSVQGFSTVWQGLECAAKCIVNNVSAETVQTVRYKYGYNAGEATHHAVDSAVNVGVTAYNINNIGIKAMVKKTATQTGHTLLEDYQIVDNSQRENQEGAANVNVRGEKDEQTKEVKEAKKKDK
# UniProt Q8IXW5, whole entry: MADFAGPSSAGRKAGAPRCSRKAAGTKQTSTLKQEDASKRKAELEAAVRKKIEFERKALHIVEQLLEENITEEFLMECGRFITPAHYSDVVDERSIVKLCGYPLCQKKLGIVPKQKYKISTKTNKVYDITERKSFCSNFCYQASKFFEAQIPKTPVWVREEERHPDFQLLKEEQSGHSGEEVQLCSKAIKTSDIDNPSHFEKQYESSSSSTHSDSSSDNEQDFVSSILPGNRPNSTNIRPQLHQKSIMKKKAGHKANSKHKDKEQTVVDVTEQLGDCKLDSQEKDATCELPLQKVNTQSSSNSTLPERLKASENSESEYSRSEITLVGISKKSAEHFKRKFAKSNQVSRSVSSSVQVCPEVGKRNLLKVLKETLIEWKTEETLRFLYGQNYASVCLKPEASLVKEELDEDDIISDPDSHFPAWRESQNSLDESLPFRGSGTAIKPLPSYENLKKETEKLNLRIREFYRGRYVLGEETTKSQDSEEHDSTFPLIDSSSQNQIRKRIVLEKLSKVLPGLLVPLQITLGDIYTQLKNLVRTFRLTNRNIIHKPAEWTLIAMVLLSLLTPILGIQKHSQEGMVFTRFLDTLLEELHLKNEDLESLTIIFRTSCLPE
# UniProt Q8N6T3: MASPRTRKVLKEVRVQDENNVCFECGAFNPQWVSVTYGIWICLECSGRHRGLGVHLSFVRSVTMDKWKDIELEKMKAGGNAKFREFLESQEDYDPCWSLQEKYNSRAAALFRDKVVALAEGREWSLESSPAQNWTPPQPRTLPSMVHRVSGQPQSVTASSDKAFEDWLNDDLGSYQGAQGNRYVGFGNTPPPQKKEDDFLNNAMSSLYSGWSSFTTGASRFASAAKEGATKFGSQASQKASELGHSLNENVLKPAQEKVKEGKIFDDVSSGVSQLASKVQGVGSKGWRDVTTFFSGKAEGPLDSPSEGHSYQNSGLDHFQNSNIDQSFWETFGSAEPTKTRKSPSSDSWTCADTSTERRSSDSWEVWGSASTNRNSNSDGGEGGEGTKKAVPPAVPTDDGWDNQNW
# UniProt Q8N5I2: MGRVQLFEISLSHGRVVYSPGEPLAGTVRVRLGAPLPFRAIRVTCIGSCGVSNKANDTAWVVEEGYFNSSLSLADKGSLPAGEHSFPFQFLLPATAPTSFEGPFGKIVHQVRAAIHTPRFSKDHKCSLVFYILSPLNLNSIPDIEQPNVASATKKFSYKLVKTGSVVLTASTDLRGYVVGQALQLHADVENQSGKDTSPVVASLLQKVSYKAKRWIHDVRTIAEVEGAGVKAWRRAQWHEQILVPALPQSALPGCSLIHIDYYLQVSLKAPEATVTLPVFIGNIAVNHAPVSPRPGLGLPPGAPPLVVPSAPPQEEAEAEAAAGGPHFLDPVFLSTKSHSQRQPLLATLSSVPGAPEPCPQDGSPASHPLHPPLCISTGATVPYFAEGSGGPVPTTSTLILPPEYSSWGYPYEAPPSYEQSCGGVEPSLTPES
# UniProt Q8N5Z0: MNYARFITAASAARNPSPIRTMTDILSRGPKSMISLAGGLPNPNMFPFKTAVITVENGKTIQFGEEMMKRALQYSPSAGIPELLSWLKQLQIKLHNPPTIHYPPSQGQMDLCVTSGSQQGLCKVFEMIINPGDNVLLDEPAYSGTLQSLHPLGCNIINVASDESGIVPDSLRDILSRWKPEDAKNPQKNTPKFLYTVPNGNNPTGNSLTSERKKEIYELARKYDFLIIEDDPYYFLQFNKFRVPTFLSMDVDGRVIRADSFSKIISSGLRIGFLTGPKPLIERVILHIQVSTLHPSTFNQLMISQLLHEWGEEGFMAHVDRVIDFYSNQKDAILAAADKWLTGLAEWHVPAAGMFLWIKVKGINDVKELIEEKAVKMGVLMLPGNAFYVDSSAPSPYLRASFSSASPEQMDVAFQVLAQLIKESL
# UniProt Q8N2M8: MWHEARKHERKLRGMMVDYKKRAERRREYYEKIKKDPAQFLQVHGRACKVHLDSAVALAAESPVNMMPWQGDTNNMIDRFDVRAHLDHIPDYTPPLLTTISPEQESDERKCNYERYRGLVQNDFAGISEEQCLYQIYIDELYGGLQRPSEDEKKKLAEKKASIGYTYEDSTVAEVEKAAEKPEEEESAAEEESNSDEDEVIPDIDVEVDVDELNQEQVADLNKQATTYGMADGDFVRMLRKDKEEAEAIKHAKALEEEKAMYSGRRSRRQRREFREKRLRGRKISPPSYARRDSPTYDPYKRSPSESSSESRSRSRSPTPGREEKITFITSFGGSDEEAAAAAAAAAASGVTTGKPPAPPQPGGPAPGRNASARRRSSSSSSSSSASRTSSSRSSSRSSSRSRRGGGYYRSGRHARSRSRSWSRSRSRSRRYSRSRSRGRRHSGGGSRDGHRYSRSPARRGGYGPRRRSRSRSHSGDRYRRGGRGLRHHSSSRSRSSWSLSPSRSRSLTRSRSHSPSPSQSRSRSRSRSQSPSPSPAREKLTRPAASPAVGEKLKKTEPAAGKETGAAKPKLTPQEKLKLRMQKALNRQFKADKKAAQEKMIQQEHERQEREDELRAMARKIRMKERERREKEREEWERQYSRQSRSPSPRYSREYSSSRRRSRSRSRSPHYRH
# UniProt Q8IWK6: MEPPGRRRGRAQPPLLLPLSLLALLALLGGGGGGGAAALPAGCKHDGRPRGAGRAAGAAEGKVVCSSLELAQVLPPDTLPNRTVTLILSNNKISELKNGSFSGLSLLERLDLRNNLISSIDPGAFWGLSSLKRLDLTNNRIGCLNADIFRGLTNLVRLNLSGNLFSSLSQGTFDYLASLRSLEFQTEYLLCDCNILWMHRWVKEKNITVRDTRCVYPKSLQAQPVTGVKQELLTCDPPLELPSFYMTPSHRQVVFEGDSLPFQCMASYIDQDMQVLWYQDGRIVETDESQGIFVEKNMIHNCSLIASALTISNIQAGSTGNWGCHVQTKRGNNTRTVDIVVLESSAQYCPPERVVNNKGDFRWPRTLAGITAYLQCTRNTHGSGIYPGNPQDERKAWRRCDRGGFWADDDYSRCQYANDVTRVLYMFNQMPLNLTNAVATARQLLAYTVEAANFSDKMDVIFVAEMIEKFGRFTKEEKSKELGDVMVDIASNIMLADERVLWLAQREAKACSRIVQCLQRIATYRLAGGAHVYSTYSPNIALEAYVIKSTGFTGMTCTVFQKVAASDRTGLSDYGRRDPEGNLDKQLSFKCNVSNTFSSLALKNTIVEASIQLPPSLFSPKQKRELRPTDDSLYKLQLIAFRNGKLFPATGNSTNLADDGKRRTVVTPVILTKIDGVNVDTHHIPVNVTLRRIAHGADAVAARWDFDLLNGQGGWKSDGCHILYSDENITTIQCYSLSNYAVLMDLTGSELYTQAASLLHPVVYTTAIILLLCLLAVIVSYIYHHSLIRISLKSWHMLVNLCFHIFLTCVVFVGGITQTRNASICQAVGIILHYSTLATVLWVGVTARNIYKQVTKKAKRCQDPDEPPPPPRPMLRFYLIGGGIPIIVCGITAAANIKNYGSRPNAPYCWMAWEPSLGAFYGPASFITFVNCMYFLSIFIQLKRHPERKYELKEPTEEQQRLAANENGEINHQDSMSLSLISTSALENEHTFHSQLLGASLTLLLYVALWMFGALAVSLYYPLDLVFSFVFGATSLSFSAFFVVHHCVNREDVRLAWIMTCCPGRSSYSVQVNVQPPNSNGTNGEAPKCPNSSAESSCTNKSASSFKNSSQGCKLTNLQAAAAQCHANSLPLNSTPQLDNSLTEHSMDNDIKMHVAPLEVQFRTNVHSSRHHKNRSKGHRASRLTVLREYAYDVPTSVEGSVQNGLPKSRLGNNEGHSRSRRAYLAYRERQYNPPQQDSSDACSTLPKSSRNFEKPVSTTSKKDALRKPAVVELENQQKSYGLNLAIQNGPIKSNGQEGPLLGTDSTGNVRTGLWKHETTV
# UniProt Q8N6N3: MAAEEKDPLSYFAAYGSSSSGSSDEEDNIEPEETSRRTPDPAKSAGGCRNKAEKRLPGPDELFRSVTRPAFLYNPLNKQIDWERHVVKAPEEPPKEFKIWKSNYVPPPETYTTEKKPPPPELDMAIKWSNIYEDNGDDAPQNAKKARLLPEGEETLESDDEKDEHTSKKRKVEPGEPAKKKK
# UniProt Q8N556: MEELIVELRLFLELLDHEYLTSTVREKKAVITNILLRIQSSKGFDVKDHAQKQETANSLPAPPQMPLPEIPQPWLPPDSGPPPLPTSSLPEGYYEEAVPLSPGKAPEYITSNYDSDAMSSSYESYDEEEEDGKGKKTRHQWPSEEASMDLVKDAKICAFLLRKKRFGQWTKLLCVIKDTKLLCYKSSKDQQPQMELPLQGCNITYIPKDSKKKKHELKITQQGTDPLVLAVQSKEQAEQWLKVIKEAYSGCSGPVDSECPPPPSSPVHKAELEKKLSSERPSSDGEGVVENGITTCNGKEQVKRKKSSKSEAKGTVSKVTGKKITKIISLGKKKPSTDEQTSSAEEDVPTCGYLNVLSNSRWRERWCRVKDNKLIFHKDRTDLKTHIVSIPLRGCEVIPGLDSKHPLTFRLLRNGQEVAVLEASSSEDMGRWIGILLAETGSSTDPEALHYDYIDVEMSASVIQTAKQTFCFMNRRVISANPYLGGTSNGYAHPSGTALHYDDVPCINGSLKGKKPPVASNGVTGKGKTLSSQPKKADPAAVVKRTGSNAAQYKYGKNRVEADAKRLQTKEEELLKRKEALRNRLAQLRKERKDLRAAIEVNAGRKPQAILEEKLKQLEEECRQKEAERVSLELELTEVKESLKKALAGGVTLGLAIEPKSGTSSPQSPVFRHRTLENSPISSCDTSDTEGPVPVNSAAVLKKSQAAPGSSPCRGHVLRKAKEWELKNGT
# UniProt Q86Y79: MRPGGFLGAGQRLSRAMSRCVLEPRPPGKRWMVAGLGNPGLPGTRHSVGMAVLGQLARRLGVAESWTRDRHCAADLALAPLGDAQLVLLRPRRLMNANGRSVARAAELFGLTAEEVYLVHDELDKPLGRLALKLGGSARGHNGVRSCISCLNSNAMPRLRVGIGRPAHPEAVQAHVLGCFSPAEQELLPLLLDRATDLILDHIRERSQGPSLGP
# The list shows a part of the results. Single values of this set are uncertain.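 Many melting curves are irregular; where none melted, Tm was taken as 64 °C.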
# Compound: CCc1cnccc1C(=O)Nc1cc2c(cc1F)NC(=O)CC2
# Assay: melting temperature shift (DMSO Tm minus MBE1-treated Tm) in cellular thermal proteome profiling; higher = less thermal stabilization by MBE1 (negative = stabilized by MBE1)
# Settings: A375; MBE1 concentration: 100 nM
row,Target,melting temperature shift [°C]
1,UniProt Q8IUC8,1.97
2,UniProt Q8IWZ6,0
3,LRRC47 (UniProt Q8N1G4),-0.396
4,UniProt Q8IWU5,2.96
5,ARHGAP12 (UniProt Q8IWW6),0.635
6,SPG20 (UniProt Q8N0X7),0.232
7,RPTOR (UniProt Q8N122),1.03
8,ZBTB8OS (UniProt Q8IWT0),0.0977
9,XRN1 (UniProt Q8IZH2),-0.971
10,RPAP2 (UniProt Q8IXW5),-0.4
11,EXOC8 (UniProt Q8IYI6),-1.12
12,LONP2 (UniProt Q86WA8),-0.134
13,ARFGAP1 (UniProt Q8N6T3),-0.574
14,ARRDC1 (UniProt Q8N5I2),-0.74
15,UniProt Q8IZQ5,-1.33
16,UniProt Q8N5M9,-1.76

row,Target,melting temperature shift [°C]
1,UniProt Q8N5Z0,-1.05
2,CARNMT1 (UniProt Q8N4J0),0.0604
3,CLASRP (UniProt Q8N2M8),-0.739
4,SUPV3L1 (UniProt Q8IYB8),-0.0427
5,SCYL3 (UniProt Q8IZE3),2.34
6,UniProt Q8IY31,-0.0305
7,DTWD1 (UniProt Q8N5C7),-0.202
8,CHERP (UniProt Q8IWX8),-0.404
9,UniProt Q8IWK6,1.04
10,C1ORF52 (UniProt Q8N6N3),0
11,DHX40 (UniProt Q8IX18),-1.74
12,HEATR5A (UniProt Q86XA9),0.714
13,AFAP1 (UniProt Q8N556),-1.33
14,PTRH1 (UniProt Q86Y79),-0.464
15,UniProt Q8N465,-0.583
16,CCAR1 (UniProt Q8IX12),1.01

# Single entries from the list:
# Under melting temperature shift [°C], DHX40 (UniProt Q8IX18) reads -1.74
# Under melting temperature shift [°C], HEATR5A (UniProt Q86XA9) reads 0.714
